Results are given in words; binding and its absence hold for the method and conditions named. In cells and extracts the contact can be indirect. Some entries that bind do so weakly or less than the wild type. For some of these results: Tags and fused reporters may be left off the sequences shown.

Protein sequences, listed by entry. Tags and fused reporters are not part of them.
UniProt Q9NRC8: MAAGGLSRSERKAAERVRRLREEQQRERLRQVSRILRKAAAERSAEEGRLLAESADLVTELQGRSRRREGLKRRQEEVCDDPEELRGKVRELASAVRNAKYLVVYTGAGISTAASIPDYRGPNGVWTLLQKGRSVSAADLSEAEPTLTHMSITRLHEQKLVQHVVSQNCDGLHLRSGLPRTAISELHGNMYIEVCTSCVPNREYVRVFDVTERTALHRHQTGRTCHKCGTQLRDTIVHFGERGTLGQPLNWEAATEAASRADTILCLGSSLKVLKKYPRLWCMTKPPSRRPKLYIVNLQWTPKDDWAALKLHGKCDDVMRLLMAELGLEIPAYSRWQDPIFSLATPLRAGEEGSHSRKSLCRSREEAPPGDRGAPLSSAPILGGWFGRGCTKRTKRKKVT
UniProt Q8BKJ9: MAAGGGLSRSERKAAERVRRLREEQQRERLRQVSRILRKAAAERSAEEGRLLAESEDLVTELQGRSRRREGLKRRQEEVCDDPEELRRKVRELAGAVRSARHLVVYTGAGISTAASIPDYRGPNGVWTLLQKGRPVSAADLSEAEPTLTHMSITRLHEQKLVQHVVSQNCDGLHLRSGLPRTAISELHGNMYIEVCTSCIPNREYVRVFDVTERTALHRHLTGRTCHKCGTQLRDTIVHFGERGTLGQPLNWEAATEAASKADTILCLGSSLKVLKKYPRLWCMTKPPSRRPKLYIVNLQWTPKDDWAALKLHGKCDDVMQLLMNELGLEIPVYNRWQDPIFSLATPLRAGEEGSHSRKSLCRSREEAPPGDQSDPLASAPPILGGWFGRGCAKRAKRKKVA

The target of test [1] is T1, C-terminal EGFP-tagged mouse Suv39h1 (mouse) (UniProt O54864).
T1 sequence: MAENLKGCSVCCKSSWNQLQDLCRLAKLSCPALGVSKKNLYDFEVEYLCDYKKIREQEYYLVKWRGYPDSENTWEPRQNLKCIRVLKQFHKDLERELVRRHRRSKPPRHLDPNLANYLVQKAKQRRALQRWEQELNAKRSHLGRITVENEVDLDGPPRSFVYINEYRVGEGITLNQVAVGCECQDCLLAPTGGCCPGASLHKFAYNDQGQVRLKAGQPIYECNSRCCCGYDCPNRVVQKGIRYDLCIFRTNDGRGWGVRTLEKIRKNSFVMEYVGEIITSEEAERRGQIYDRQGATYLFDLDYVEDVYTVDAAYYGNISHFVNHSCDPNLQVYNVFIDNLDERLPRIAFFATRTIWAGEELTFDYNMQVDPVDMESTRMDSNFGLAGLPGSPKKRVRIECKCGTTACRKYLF
The test is described as follows: co-IP; HEK293T co-transfected with EGFP-Suv39h1 and Flag-Sirt7, harvested 48 h post-transfection; immunoprecipitation with anti-EGFP antibody (non-immune IgG as control), in presence of benzonase 0.15 U/µL; western blot. (Immunoblotting shows a protein as a band on a membrane.)

The target of test [2] is T2, endogenous Suv39h1 (primary MEFs) (mouse (endogenous in primary MEFs)) (UniProt O54864).
T2 sequence: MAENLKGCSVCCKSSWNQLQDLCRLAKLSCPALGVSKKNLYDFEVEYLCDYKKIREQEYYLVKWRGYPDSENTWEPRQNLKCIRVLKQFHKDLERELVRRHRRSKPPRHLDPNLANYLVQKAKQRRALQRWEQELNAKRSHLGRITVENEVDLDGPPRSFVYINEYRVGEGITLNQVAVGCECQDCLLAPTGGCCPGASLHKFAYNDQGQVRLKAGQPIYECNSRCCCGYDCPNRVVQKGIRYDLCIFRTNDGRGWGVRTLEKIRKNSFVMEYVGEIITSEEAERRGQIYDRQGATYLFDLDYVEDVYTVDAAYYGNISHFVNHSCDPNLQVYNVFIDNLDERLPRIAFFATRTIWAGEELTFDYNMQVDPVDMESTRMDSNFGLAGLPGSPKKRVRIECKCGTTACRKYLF
Nature of the test: co-IP; endogenous proteins in primary MEFs; immunoprecipitation with anti-Suv39h1 antibody (IgG as control), in presence of benzonase 0.15 U/µL; western blot with anti-Sirt7 and anti-Suv39h1.

In a further test the target is T3, Flag-Sirt1 K230Q (UniProt Q923E4).
T3 sequence: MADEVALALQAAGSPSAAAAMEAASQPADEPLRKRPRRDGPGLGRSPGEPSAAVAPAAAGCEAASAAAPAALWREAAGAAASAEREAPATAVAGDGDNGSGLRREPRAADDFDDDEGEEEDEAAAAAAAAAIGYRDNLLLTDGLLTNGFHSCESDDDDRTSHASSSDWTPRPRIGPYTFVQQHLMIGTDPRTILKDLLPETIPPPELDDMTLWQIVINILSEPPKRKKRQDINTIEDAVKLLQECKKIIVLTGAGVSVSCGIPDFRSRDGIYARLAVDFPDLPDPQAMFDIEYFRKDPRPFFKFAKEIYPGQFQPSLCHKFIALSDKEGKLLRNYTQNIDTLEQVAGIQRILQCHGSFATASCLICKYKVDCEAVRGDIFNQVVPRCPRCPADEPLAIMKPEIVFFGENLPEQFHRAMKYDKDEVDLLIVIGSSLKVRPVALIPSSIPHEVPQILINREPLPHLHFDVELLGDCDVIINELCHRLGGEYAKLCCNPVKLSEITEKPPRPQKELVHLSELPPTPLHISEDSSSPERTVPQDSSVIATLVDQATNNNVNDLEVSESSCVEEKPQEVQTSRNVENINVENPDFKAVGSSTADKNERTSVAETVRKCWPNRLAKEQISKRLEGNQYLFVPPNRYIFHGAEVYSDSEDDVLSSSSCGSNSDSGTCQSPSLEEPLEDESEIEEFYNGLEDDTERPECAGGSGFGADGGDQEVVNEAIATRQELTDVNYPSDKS
The test is described as follows: co-IP; HEK293T transfected with Flag-Sirt1 wild type, K230R or K230Q, 48 h; Flag-tagged proteins isolated (ANTI-FLAG M2 Affinity Gel, elution with FLAG peptide), in presence of benzonase 0.15 U/µL; western blot for endogenous Suv39h1.

The target in the next test is T4, Flag-Sirt1 K230R (UniProt Q923E4).
T4 sequence: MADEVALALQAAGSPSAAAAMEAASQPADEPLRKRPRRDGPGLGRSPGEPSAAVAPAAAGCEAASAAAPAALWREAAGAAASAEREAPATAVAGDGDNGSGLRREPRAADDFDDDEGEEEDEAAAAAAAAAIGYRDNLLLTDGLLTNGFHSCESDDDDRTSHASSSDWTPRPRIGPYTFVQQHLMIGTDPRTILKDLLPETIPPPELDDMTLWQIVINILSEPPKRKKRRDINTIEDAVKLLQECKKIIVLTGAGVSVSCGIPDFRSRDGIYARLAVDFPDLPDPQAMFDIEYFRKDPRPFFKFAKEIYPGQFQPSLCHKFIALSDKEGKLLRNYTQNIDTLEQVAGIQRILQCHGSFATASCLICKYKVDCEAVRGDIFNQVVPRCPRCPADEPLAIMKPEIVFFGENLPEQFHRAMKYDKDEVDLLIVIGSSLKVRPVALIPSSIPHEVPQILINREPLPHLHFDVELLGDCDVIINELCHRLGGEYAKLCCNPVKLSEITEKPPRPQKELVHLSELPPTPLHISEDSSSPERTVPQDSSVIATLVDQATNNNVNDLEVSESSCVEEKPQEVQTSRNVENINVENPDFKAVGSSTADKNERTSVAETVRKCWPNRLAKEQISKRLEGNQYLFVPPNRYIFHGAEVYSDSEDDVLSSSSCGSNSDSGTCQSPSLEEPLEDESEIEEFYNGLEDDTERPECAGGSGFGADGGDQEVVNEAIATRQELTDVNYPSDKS
The description is as above.

Turning to “C-terminal Flag-tagged human Sirt7 (from UniProt Q9NRC8 1-400)”, the binding entry in test [1] is given as “binds”.
With “endogenous Sirt7 (primary MEFs) (from UniProt Q8BKJ9 1-402)”, in test [2], the binding result was “binds”.

B1: endogenous Suv39h1 (HEK293T) (protein, UniProt O43463 1-412)
chain: MAENLKGCSVCCKSSWNQLQDLCRLAKLSCPALGISKRNLYDFEVEYLCDYKKIREQEYYLVKWRGYPDSESTWEPRQNLKCVRILKQFHKDLERELLRRHHRSKTPRHLDPSLANYLVQKAKQRRALRRWEQELNAKRSHLGRITVENEVDLDGPPRAFVYINEYRVGEGITLNQVAVGCECQDCLWAPTGGCCPGASLHKFAYNDQGQVRLRAGLPIYECNSRCRCGYDCPNRVVQKGIRYDLCIFRTDDGRGWGVRTLEKIRKNSFVMEYVGEIITSEEAERRGQIYDRQGATYLFDLDYVEDVYTVDAAYYGNISHFVNHSCDPNLQVYNVFIDNLDERLPRIAFFATRTIRAGEELTFDYNMQVDPVDMESTRMDSNFGLAGLPGSPKKRVRIECKCGTESCRKYLF
Turning to B1, the binding entry with Flag-Sirt1 K230Q is listed as “binds weakly”; with Flag-Sirt1 K230R, “binds”.

The values above are taken from paper PMC6132954.
